This is one part of the list. Repeats are few or missing, and single values can be far off.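 Imaging used 1,536-well plates; nuclei positive for cleaved PARP by antibody were divided by total DNA-stained nuclei to yield the apoptosis fraction. Doses for screening kept most cells viable, and cell lines differ markedly in resting and induced cleaved-PARP levels.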
Tests used:
Experiment in all cases: cleaved PARP positive nuclei fraction relative to DMSO control; melanoma cells; higher = more apoptosis
Conditions in all cases: library dose: low library concentration; 72 h
[1] = system: MZ2-MEL
[2] = system: MeWo
[3] = system: RPMI7951
[4] = system: RVH-421
[5] = system: SkMel28
[6] = system: SkMel2
[7] = system: SkMel30
[8] = system: SkMel5
[9] = system: UACC257
[10] = system: UACC62

Row | Compound | cleaved PARP positive nuclei fraction [1] [%] | cleaved PARP positive nuclei fraction [2] [%] | cleaved PARP positive nuclei fraction [3] [%] | cleaved PARP positive nuclei fraction [4] [%] | cleaved PARP positive nuclei fraction [5] [%] | cleaved PARP positive nuclei fraction [6] [%] | cleaved PARP positive nuclei fraction [7] [%] | cleaved PARP positive nuclei fraction [8] [%] | cleaved PARP positive nuclei fraction [9] [%] | cleaved PARP positive nuclei fraction [10] [%]
1 | N.N.[Cl][Pt][Cl] [cisplatin] + CC1(C)NC(=O)N(c2ccc([N+](=O)[O-])c(C(F)(F)F)c2)C1=O [nilutamide] (first compound 1.6 µM, partner dose 1 µM) | 116 | 151 | 256 | 118 | 40 | 74.2 | 70.2 | 63.9 | 31 | 25.9
2 | N.N.[Cl][Pt][Cl] [cisplatin] + COc1cc2ncnc(Nc3ccc(Oc4ccccc4)cc3)c2cc1OC [SrcI1] (first compound 1.6 µM, partner dose 2 µM) | 73 | 208 | 309 | 69.9 | 120 | 127 | 55 | 145 | 76.2 | 92.5
3 | CS(=O)(=O)c1ccc(C(=O)Nc2ccc(Cl)c(-c3ccccn3)c2)c(Cl)c1 [vismodegib] + Cc1cc(SCc2sc(-c3ccc(C(F)(F)F)c(F)c3)nc2C)ccc1OCC(=O)O [GW0742] (first compound 1 µM, partner dose 2 µM) | 93.2 | 103 | 34.3 | 56.4 | 94.7 | 79.7 | 88.2 | 31.1 | 96.8 | 93.9
4 | C[As](C)SC[C@H](NC(=O)CC[C@H](N)C(=O)O)C(=O)NCC(=O)O [Darinaparsin] + Cn1cncc1[C@@](N)(c1ccc(Cl)cc1)c1ccc2c(c1)c(-c1cccc(Cl)c1)cc(=O)n2C [tipifarnib] (first compound 0.4 µM, partner dose 0.01 µM) | 99.7 | 135 | 130 | 47.5 | 231 | 153 | 82.8 | 64.6 | 104 | 64.1
5 | N.N.[Cl][Pt][Cl] [cisplatin] + CCc1ccc(CCOc2ccc(CC3SC(=O)NC3=O)cc2)nc1 [pioglitazone] (first compound 1.6 µM, partner dose 2 µM) | 304 | 84.3 | 148 | 108 | 182 | 239 | 119 | 81 | 81.4 | 124
6 | C[C@@H](N)c1ccc(C(=O)Nc2ccnc3[nH]ccc23)cc1 + O=C(Oc1ccc([N+](=O)[O-])cc1)N1CCC(C(O)(c2ccc3c(c2)OCO3)c2ccc3c(c2)OCO3)CC1 [JZL184] (first compound 0.4 µM, partner dose 1 µM) | 209 | 107 | 231 | 91.1 | 212 | 24.3 | 78.9 | 496 | 195 | 151
7 | Nc1nc(F)nc2c1ncn2[C@@H]1O[C@H](CO)[C@@H](O)[C@@H]1O [fludarabine] + O=C(Oc1ccc([N+](=O)[O-])cc1)N1CCC(C(O)(c2ccc3c(c2)OCO3)c2ccc3c(c2)OCO3)CC1 [JZL184] (first compound 0.2 µM, partner dose 1 µM) | 206 | 441 | 107 | 181 | 126 | 843 | 265 | 136 | 179 | 124
8 | N.N.[Cl][Pt][Cl] [cisplatin] + CCCCCCCCCCCC1=C(O)C(=O)C=C(O)C1=O [Embelin] (first compound 1.6 µM, partner dose 1.2 µM) | 109 | 145 | 138 | 196 | 148 | 65.3 | 130 | 63.2 | 74 | 46
9 | C[As](C)SC[C@H](NC(=O)CC[C@H](N)C(=O)O)C(=O)NCC(=O)O [Darinaparsin] + OCCn1cc(-c2cnc3nnn(Cc4ccc5ncccc5c4)c3n2)cn1 [PF04217903] (first compound 0.4 µM, partner dose 1 µM) | 131 | 55.2 | 141 | 57.5 | 70.8 | 98.5 | 50.8 | 34.4 | 92.2 | 113
10 | CC(=O)c1c(C)c2cnc(Nc3ccc(N4CCNCC4)cn3)nc2n(C2CCCC2)c1=O [palbociclib] + O=C(Oc1ccc([N+](=O)[O-])cc1)N1CCC(C(O)(c2ccc3c(c2)OCO3)c2ccc3c(c2)OCO3)CC1 [JZL184] (first compound 0.04 µM, partner dose 1 µM) | 47 | 42.7 | 44.9 | 108 | 151 | 74.7 | 425 | 98.8 | 150 | 162
11 | O=C(/C=C/c1cccnc1)NCCCCC1CCN(C(=O)c2ccccc2)CC1 + C/C(O)=C(\C#N)C(=O)Nc1cc(Br)ccc1Br [LFM-A13] (first compound 0.01 µM, partner dose 2 µM) | 513 | 56.4 | 64.3 | 168 | 21.4 | 337 | 92.7 | 162 | 81.7 | 156
12 | CNC(=O)c1cc(Oc2ccc(NC(=O)Nc3ccc(Cl)c(C(F)(F)F)c3)cc2)ccn1 [sorafenib] + O=C(Oc1ccc([N+](=O)[O-])cc1)N1CCC(C(O)(c2ccc3c(c2)OCO3)c2ccc3c(c2)OCO3)CC1 [JZL184] (first compound 0.4 µM, partner dose 1 µM) | 81.5 | 54.3 | 37.5 | 197 | 130 | 54.8 | 115 | 90.9 | 113 | 99.3
13 | O=C(O)[C@@H]1[O][Sb](=[O])([O][Sb]2(=[O])[O][C@H]([C@H](O)CO)[C@H](O)[C@H](C(=O)O)[O]2)[O][C@H]([C@H](O)CO)[C@@H]1O (stereo not given in full) [stibogluconate] + Cc1cc(SCc2sc(-c3ccc(C(F)(F)F)c(F)c3)nc2C)ccc1OCC(=O)O [GW0742] (first compound 2 µM, partner dose 2 µM) | 60.9 | 122 | 145 | 84.6 | 55.3 | 106 | 185 | 262 | 63.9 | 66.7
14 | CC1(C)CCC(c2ccc(Cl)cc2)=C(CN2CCN(c3ccc(C(=O)NS(=O)(=O)c4ccc(N[C@H](CCN5CCOCC5)CSc5ccccc5)c(S(=O)(=O)C(F)(F)F)c4)cc3)CC2)C1 + O=C(Oc1ccc([N+](=O)[O-])cc1)N1CCC(C(O)(c2ccc3c(c2)OCO3)c2ccc3c(c2)OCO3)CC1 [JZL184] (first compound 0.4 µM, partner dose 1 µM) | 244 | 161 | 146 | 90.6 | 176 | 99.1 | 439 | 113 | 42.9 | 122
15 | Cn1cc(C2=C(c3cn(C4CCN(Cc5ccccn5)CC4)c4ccccc34)C(=O)NC2=O)c2ccccc21 [Enzastaurin] + CCN(CC)CCCCNc1ncc2cc(-c3cc(OC)cc(OC)c3)c(NC(=O)NC(C)(C)C)nc2n1 [PD173074] (first compound 0.8 µM, partner dose 0.1 µM) | 154 | 74.5 | 74.4 | 90.2 | 117 | 262 | 89.7 | 79.7 | 106 | 75.1
16 | CN(c1ncccc1CNc1nc(Nc2ccc3c(c2)CC(=O)N3)ncc1C(F)(F)F)S(C)(=O)=O + Cc1cc(SCc2sc(-c3ccc(C(F)(F)F)c(F)c3)nc2C)ccc1OCC(=O)O [GW0742] (first compound 0.08 µM, partner dose 2 µM) | 130 | 63.2 | 218 | 127 | 97.9 | 69.2 | 87.5 | 96.9 | 23.2 | 161
17 | N.N.[Cl][Pt][Cl] [cisplatin] + Oc1nc(-c2ccc(C(F)(F)F)cc2)nc2c1CSCC2 [XAV939] (first compound 1.6 µM, partner dose 2 µM) | 87.2 | 117 | 107 | 77.6 | 241 | 74.4 | 136 | 82.9 | 70.8 | 142
18 | NC(=O)c1ccc(N(C(N)=O)c2c(F)cccc2F)nc1-c1ccc(F)cc1F + O=C(Oc1ccc([N+](=O)[O-])cc1)N1CCC(C(O)(c2ccc3c(c2)OCO3)c2ccc3c(c2)OCO3)CC1 [JZL184] (first compound 0.4 µM, partner dose 1 µM) | 172 | 53 | 92.6 | 220 | 127 | 120 | 38.6 | 129 | 42 | 152
19 | Cn1cc(C2=C(c3cn(C4CCN(Cc5ccccn5)CC4)c4ccccc34)C(=O)NC2=O)c2ccccc21 [Enzastaurin] + COc1cc(Nc2ncc(F)c(Nc3ccc4c(n3)NC(=O)C(C)(C)O4)n2)cc(OC)c1OC [Tamatinib] (first compound 0.8 µM, partner dose 0.4 µM) | 93.2 | 76.3 | 378 | 32.1 | 126 | 277 | 72.1 | 153 | 123 | 151
20 | Cn1cc(C2=C(c3cn(C4CCN(Cc5ccccn5)CC4)c4ccccc34)C(=O)NC2=O)c2ccccc21 [Enzastaurin] + COc1ccc2c(c1)CCC1C2CCC2(C)C(NCCCCCCN3C(=O)C=CC3=O)CCC12 [U73122] (first compound 0.8 µM, partner dose 0.4 µM) | 70.1 | 40 | 87.8 | 46.9 | 76.7 | 149 | 83.8 | 236 | 206 | 32.3
21 | O=c1[nH]nc(Sc2ncc([N+](=O)[O-])s2)n1-c1ccc2c(c1)OCCO2 + C/C(O)=C(\C#N)C(=O)Nc1cc(Br)ccc1Br [LFM-A13] (first compound 0.2 µM, partner dose 2 µM) | 47.5 | 35.5 | 777 | 36.7 | 127 | 65.4 | 77.8 | 230 | 265 | 95.1
22 | Cn1cc(C2=C(c3cn(C4CCN(Cc5ccccn5)CC4)c4ccccc34)C(=O)NC2=O)c2ccccc21 [Enzastaurin] + CC1(C)NC(=O)N(c2ccc([N+](=O)[O-])c(C(F)(F)F)c2)C1=O [nilutamide] (first compound 0.8 µM, partner dose 1 µM) | 48.5 | 55.7 | 114 | 49.5 | 111 | 194 | 65.1 | 81.3 | 192 | 96.8

Laid out differently: entries from further up
Row	Compound	cleaved PARP positive nuclei fraction [1] [%]	cleaved PARP positive nuclei fraction [2] [%]	cleaved PARP positive nuclei fraction [3] [%]	cleaved PARP positive nuclei fraction [4] [%]	cleaved PARP positive nuclei fraction [5] [%]	cleaved PARP positive nuclei fraction [6] [%]	cleaved PARP positive nuclei fraction [7] [%]	cleaved PARP positive nuclei fraction [8] [%]	cleaved PARP positive nuclei fraction [9] [%]	cleaved PARP positive nuclei fraction [10] [%]
10	CC(=O)c1c(C)c2cnc(Nc3ccc(N4CCNCC4)cn3)nc2n(C2CCCC2)c1=O [palbociclib] + O=C(Oc1ccc([N+](=O)[O-])cc1)N1CCC(C(O)(c2ccc3c(c2)OCO3)c2ccc3c(c2)OCO3)CC1 [JZL184] (first compound 0.04 µM, partner dose 1 µM)	47	42.7	44.9	108	151	74.7	425	98.8	150	162
11	O=C(/C=C/c1cccnc1)NCCCCC1CCN(C(=O)c2ccccc2)CC1 + C/C(O)=C(\C#N)C(=O)Nc1cc(Br)ccc1Br [LFM-A13] (first compound 0.01 µM, partner dose 2 µM)	513	56.4	64.3	168	21.4	337	92.7	162	81.7	156
